Results deposited as PubChem BioAssay AID504774 (Drosophila RNAi Screening Center, 2011).
The screen tested about 23,000 reagents; below is a random part of those with a known target gene and a result. 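Values are quantile-normalised luminescence on an arbitrary scale; higher means more cells surviving MMS.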 The numbers tell different reagents against one gene apart. A plus sign joins genes that one reagent is predicted to hit. Not all columns of the deposit are shown.

Test: 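Fly genes whose loss alters survival after alkylation damage to DNA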 (primary screen)
System: Drosophila Kc167 cells
Knock-down reagent: long dsRNA against Drosophila genes, about 0.25 µg dsRNA per well
Timing: about 6 days: 3 days knock-down, then 3 days with or without MMS
Challenge: methyl methanesulphonate 0.004% (w/v) for 3 days after knock-down
Detection: 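Viability in wells given MMS, read as ATP luminescence, normalised by quantiles plate by plate and averaged across replicates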
Direction: mean viability with MMS and viability with MMS: higher = more surviving cells after MMS

no.	Target gene	dsRNA no.	mean viability with MMS	viability with MMS, replicate 1
1	CG14130	1	3.66e6	4.32e6
2	Hsp23	1	3.55e6	4.01e6
3	CG9132	1	3.72e6	4.43e6
4	mRpL43	1	3.70e6	4.09e6
5	mRpL43	2	3.45e6	3.98e6
6	qin	1	3.48e6	4.06e6
7	Gr36a	1	3.38e6	3.89e6
8	CtsL2	1	3.65e6	4.15e6
9	LysD + LysB + LysC (retired record)	1	3.54e6	4.09e6
10	Sox21a	1	3.52e6	3.94e6

In a second layout: 2 of the entries above
Target gene,dsRNA no.,mean viability with MMS,"viability with MMS, replicate 1"
LysD + LysB + LysC (retired record),1,3.54e6,4.09e6
Sox21a,1,3.52e6,3.94e6

Further records:
no.	Target gene	dsRNA no.	mean viability with MMS	viability with MMS, replicate 1
11	tacc	1	3.40e6	3.87e6
12	tacc	2	3.36e6	3.82e6
13	fmt	1	3.46e6	3.92e6
14	Atf-2	1	3.29e6	2.93e6
15	Atf-2	2	1.60e6	3.88e6
16	CG17666	1	3.58e6	4.08e6
17	CG13449	1	3.59e6	4.02e6
18	Pfdn1	1	3.62e6	4.15e6
19	CG42748	1	3.57e6	4.05e6
20	CG42748	2	3.59e6	4.05e6
21	CG42748	3	3.51e6	4.01e6
22	CG31855	1	3.44e6	3.86e6
23	CG12480	1	3.80e6	4.13e6
24	shop	1	3.71e6	4.17e6
25	CG13791 (retired record)	1	3.57e6	3.94e6
26	CG8850	1	3.80e6	4.47e6
27	Cbp80	1	3.05e6	3.18e6
28	snu	1	3.60e6	3.99e6
